# Measurements reported in PubChem BioAssay AID651640 (Broad Institute, 2012).
# Screen size: about 350,000 compounds; about 6,000 (1.7%) were called active. Cut-off read from the data, not from the text of the source: active = CPE inhibition above about 20% (passing the limit was not always enough); inconclusive = no clear call, values can overlap the other calls; tested in BHK-21 cells. Inconclusive results, whose numbers are uncertain, are shown.
# Assay: protection of cells from dengue 2 killing – plate reader, single concentration, primary screen (AID 651640);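 note: 0% = median of neutral control wells and 100% = median of positive control wells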
# Conditions: DENV2-infected cells, cytopathic effect rescue, at 9.99 µM, stronger effect = higher value
row,Structure (SMILES),CPE inhibition
1,NC(=O)c1ccc(NC(=O)COC(=O)c2ccc([N+](=O)[O-])cc2)cc1,inconclusive: 26%
2,CCCCNS(=O)(=O)CCNCc1ccccc1OC,inconclusive: 29.1%
